# Results of single-concentration screens

By UniProt entry, the sequences of proteins in these tests, tags left out. Residues count along the entry.
UniProt P9WFT3, whole entry: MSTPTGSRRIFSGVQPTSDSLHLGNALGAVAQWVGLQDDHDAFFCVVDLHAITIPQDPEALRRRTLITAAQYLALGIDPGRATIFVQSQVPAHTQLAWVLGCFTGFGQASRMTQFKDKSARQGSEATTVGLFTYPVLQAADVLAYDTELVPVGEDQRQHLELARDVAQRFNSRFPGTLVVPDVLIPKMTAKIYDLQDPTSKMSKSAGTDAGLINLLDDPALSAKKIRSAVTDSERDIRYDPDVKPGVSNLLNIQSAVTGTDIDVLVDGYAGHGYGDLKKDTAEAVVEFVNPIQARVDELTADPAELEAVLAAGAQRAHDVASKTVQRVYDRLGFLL
UniProt I6X8D2, whole entry: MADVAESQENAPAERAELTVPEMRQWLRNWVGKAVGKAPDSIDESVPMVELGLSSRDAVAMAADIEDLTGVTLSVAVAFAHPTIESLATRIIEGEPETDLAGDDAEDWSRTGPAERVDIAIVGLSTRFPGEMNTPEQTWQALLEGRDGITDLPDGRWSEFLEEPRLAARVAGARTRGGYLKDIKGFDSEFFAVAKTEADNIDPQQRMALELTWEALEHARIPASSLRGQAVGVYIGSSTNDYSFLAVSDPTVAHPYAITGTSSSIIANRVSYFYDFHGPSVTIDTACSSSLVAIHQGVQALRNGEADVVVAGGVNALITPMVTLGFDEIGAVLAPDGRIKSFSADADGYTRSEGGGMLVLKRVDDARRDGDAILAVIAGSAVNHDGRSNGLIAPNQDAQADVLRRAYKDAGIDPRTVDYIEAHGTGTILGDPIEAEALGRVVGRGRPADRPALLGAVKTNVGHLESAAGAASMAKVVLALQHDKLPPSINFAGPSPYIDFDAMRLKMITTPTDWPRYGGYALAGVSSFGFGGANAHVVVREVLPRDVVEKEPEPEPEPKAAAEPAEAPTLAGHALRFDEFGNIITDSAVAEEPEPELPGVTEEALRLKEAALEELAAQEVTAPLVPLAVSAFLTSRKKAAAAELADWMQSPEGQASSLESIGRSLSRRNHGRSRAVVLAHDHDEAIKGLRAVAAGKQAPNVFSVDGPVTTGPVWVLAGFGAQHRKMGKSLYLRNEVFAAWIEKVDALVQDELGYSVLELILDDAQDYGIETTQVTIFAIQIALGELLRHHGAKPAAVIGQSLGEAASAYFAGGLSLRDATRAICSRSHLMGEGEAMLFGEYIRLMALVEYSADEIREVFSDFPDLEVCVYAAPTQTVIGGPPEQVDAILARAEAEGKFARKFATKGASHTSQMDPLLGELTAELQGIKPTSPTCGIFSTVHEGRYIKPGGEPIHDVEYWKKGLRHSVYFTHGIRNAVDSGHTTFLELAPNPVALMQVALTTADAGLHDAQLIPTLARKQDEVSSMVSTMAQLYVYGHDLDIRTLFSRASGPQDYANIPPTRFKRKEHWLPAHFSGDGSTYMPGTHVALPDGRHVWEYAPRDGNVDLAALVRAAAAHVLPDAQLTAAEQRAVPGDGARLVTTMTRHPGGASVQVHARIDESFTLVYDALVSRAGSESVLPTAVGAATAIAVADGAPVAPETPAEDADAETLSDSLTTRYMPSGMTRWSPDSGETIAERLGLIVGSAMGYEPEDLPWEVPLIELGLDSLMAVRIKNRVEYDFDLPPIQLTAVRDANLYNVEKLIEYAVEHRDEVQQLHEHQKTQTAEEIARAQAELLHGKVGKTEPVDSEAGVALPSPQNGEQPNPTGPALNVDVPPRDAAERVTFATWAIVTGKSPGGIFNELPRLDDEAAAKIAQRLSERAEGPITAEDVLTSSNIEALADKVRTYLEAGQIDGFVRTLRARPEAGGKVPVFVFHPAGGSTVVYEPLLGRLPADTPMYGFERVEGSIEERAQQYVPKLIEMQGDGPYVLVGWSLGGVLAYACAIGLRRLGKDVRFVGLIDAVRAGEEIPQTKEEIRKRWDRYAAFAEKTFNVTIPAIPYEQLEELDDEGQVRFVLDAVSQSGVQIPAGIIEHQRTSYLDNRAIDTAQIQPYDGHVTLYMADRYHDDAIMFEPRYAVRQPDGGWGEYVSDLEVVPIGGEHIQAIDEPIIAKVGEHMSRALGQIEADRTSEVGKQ
UniProt Q4DA54, 1-478: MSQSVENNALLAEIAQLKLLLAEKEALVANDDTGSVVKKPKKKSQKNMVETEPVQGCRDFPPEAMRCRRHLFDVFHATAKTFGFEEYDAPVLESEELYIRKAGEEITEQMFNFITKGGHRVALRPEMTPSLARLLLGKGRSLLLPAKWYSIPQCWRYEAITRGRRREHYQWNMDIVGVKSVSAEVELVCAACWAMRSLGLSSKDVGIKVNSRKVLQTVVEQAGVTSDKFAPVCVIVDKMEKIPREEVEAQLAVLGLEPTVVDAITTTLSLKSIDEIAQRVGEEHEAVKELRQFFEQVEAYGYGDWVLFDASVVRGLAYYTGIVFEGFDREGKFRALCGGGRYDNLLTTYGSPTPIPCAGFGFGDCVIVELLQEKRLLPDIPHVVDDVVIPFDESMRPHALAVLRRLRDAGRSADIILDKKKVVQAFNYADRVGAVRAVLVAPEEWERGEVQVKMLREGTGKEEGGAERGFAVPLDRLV

The values are deposited in ChEMBL (CHEMBL3988442, “University of Dundee, Small-Polar-MMV Screening Library” (2021)).

Results are given as percent effect.
The record does not define 0% and 100%; most values in the screen are far below 50% and negative numbers occur (in some assays of this library far below -100).
The compounds are a random part of those screened.
Two or more numbers in one place are separate tests of the same structure; such repeats can differ widely.
A dash means the value is not listed here; it may have been measured.

A: 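Tryptophan-tRNA ligase, Mycobacterium tuberculosis (UniProt P9WFT3). Enzyme assay of tryptophanyl-tRNA synthetase; the read-out is not stated. Tested at 10 µM. Direction is not recorded; retested compounds ran higher, which suggests that high means inhibition. Of about 65,000 compounds tested this way, about 64 (0.098%) reached 50% or more in at least one test.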
B: 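Cell assay of Leishmania donovani living inside macrophages; the read-out is not stated. Compounds at 30 µM. Higher reads as stronger inhibition (inferred: compounds with an IC50 in retests scored well above the rest). Of about 69,000 compounds tested this way, about 1,000 (1.5%) reached 50% or more in at least one test.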
C: 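Polyketide synthase Pks13, Mycobacterium tuberculosis (UniProt I6X8D2). Enzyme assay of the thioesterase domain of polyketide synthase 13; the read-out is not stated. Concentration: 30 µM. Higher reads as stronger inhibition (inferred from which compounds were picked for retests). About 67,000 compounds were tested under these conditions; 0.46% (about 300) showed 50% or more at least once.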
D: 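Enzyme assay of histidyl-tRNA synthetase; the read-out is not stated. Target: Histidine-tRNA ligase, Trypanosoma cruzi CL Brener (UniProt Q4DA54). Tested at 30 µM. The record gives no direction; compounds that gave an IC50 in retests scored well above the rest, so higher reads as stronger inhibition. About 69,000 compounds were tested under these conditions; 0.045% (about 31) showed 50% or more at least once.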

O=C(CC1CC1)N1CCn2cc(Cn3cccn3)nc2C1 gave A: -1.407%; C: -0.6537%; D: 12.75%. With CCNCc1ccc(OCc2ccc3c(c2)OCCO3)cc1.Cl the screen gave B: 21.82%. CO[C@H]1CCN(S(=O)(=O)c2cn(C)cn2)[C@H]1Cc1ccncc1 gave A: 0.2788%; B: 15.61%; C: -24.71%; D: 7.463%. With OCCN1CCCC(c2nccnc2Oc2ccc(F)cc2)C1 (centres undefined) the screen gave B: 11.34%; C: -0.126%; D: 5.993%. Result for [H][C@@]12CCN[C@]1([H])CN(S(=O)(=O)c1cccc(Cl)c1)C2 was B: 10.69%. Cn1cc(S(=O)(=O)N2CCCC2Cn2ccnc2)cc1C(N)=O (centres undefined) gave A: -2.374%; B: 8.37%; C: -63.53%; D: 6.494%. With Cn1ccnc1-c1ccc(NCCC2COc3ccccc3O2)nn1 (centres undefined) the screen gave A: 0.5708%; B: 1.297%; C: -8.136%; D: 8.861%.

For COc1ccccc1CN(CC1CCCO1)C(=O)c1scnc1C (centres undefined) the result was A: 4.388%; B: 11.03%; C: -24.64%; D: 7.179%. Result for Cc1noc(C)c1CN(C)C(=O)c1ccc(C(N)=O)nc1 was A: -2.062%; B: 14.49%; C: -34.38%; D: 5.78%. For CC(NCCCn1ccnc1)c1ccc(N2CCOC2=O)cc1 (centres undefined) the result was A: -1.312%; B: 9.616%; C: -26.48%; D: 8.28%. With O=C(Cc1ccccc1F)N1CCN(C(=O)c2ccoc2)CC1 the screen gave A: -3.072%; B: 22.75%; C: -23.09%; D: 3.261%. Cc1nnc(NCC2(c3ccccc3)CCOCC2)c(C#N)c1C read A: -2.381%; B: 30.71%; C: -7.317%; D: 12.81%. Result for COCCn1ccc2c(C(=O)NC3CN4CCC3CC4)cccc21 (centres undefined) was A: 3.011%; B: 17.56%; C: -27.79%; D: -2.924%. CC(CCc1ccccc1)N1CCC(C(=O)NCc2ccccc2)CC1 (centres undefined) gave A: -2.386%; B: 24.55% & 7.132%; C: 44.54%; D: 7.317%.

With CCc1nc(C2CCCN(C(=O)c3cn(C)nc3C)C2)no1 (centres undefined) the screen gave A: -0.09719%; B: 13.82%; C: -8.182%; D: 0.3831%. COC(=O)c1ccc(Cn2nc(C)cc2C)c(OC)c1 gave A: -2.938%; B: 0.3528%; C: -11.56%; D: 5.844%. With Cc1cnn(CC(C)NCc2nc(-c3ccccn3)no2)c1 (centres undefined) the screen gave A: 3.055%; B: 2.286%; C: -7.582%; D: 4.911%. O=C(NCc1cnc2n1CCN(CC1CCOCC1)C2)c1ccno1 read A: -0.7359%; C: -6.49%; D: 7.216%. Cc1cc(-c2cnc(N3CCOCC3)nc2-c2ccc(C)s2)on1 read B: -2.693% & 24.7%; C: -2.397%; D: 7.692%. CC(CN1CCOCC1)NC1CCN(Cc2cccc(O)c2)CC1 (centres undefined) read A: -5.255%; B: 2.283%; C: -14.3%; D: 6.704%. CCn1c(CN(C)CC(=O)N(C)C)nc2c(F)cccc21 gave A: -8.596%; B: 14.52%; C: -4.358%; D: 9.244%.

The first 2 entries again:

Compound	A	B	C	D
O=C(CC1CC1)N1CCn2cc(Cn3cccn3)nc2C1	-1.407	-	-0.6537	12.75
CCNCc1ccc(OCc2ccc3c(c2)OCCO3)cc1.Cl	-	21.82	-	-